# Experimental data published in patent US20250114350A1, “INHIBITORS OF […] AS ANTIFUNGAL AGENTS” (Regents of the University of Minnesota, priority 2023, published 2025).
# Some results were stated once for a whole list of compounds, not compound by compound.
# Tested on: C. neoformans FTase (CnFTase)
# Experiment: CnFTase activity assay, farnesylation of a fluorescent (dansylated) peptide, 1μMIC50
# Type: biochemical, Cryptococcus neoformans
# Conditions: 1 μM FPP; relative to L-778,123
# Protocol: The library of 23 compounds contained leads with 60- to 150-fold enhanced ^1μMIC50 values.
# CnFTase activity assay. The farnesyl transferase activity was measured by measuring the time dependence of the fluorescence emission intensity increase due to farnesylation of a dansylated peptide (Cassidy, P. B, et al., Methods Enzymol, 1995, 250, 30-43). Measurements were taken at room temperature in a 96-well black polystyrene, half area, flat bottom, non-binding surface plate using a SpectraMax M5e plate reader (excitation wavelength, 340 nm; emission wavelength 525 nm; emission high-pass filter, 455 nm). […] Final CnFTase concentrations (from 5× or 10× stocks in 20 mM Tris-HCl pH7.5, 20 mM NaCl, 5 μM ZnCl2, 1 mM TCEP, 1 mg/mL BSA): A, 20 nM; B: 4.4, 6.7, 10 nM triplets. […] For experiments that included phosphate, pH 7.5 stock was added to the desired final concentration. Data was analyzed using Python scripts for the Biomolecular Computing (BMC) package, included in the Dryad electronic repository. Data for determining ^1μMIC50 values (condition A) was collected in triplicate. […] 1μMIC50 were determined by fitting a single-site Langmuir ligand-binding isotherm to the dependence of vo on inhibitor concentration (2, see below). […]
row,Compound,"improvement of 1μMIC50 over L-778,123"
1,"CCCCC[C@H]1CN(c2cccc(OC(F)(F)F)c2)C(=O)CN1Cc1cncn1Cc1ccc(Br)cc1 [Compound 21, (S)-4-((1-(4-Bromobenzyl)-1H-imidazol-5-yl)methyl)-5-pentyl-1-(3-(trifluoromethoxy)phenyl)piperazin-2-one]",30-40 fold
2,"CCCC[C@H]1CN(c2cccc(OC(F)(F)F)c2)C(=O)CN1Cc1cncn1Cc1ccc(Br)cc1 [Compound 2f, (S)-4-((1-(4-Bromobenzyl)-1H-imidazol-5-yl)methyl)-5-butyl-1-(3-(trifluoromethoxy)phenyl)piperazin-2-one]",30-40 fold
